The target in the test is T1, FLAG-tagged CARM1 (coactivator-associated arginine methyltransferase 1) (UniProt Q86X55).
T1 sequence: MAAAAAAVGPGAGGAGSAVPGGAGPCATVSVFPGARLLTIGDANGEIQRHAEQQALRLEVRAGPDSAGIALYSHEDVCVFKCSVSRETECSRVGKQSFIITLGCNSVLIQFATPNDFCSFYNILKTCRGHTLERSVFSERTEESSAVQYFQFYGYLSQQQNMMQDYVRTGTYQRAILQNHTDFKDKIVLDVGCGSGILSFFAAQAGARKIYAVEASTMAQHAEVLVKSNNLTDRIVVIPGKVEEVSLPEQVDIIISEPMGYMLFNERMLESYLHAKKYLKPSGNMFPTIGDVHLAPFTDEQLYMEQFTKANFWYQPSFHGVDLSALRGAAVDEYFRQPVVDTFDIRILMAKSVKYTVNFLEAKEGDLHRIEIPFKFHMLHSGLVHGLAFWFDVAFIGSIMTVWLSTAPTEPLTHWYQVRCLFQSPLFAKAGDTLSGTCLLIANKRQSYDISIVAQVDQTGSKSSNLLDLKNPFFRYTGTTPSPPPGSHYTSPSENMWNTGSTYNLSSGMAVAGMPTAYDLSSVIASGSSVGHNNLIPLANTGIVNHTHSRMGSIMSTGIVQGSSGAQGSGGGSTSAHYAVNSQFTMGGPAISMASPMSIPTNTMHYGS
The test is described as follows: affinity purification with mass spectrometry; lysates of MDA-MB-231 cells stably expressing vector or FLAG-CARM1 on an anti-FLAG column, eluted with FLAG peptide, SDS-PAGE, silver stain, LC-MS/MS; verified by Western blot. A general note: In western blotting, separated proteins are transferred to a membrane and probed.

Protein sequences, listed by entry. Tags and fused reporters are not part of them.
UniProt Q16665: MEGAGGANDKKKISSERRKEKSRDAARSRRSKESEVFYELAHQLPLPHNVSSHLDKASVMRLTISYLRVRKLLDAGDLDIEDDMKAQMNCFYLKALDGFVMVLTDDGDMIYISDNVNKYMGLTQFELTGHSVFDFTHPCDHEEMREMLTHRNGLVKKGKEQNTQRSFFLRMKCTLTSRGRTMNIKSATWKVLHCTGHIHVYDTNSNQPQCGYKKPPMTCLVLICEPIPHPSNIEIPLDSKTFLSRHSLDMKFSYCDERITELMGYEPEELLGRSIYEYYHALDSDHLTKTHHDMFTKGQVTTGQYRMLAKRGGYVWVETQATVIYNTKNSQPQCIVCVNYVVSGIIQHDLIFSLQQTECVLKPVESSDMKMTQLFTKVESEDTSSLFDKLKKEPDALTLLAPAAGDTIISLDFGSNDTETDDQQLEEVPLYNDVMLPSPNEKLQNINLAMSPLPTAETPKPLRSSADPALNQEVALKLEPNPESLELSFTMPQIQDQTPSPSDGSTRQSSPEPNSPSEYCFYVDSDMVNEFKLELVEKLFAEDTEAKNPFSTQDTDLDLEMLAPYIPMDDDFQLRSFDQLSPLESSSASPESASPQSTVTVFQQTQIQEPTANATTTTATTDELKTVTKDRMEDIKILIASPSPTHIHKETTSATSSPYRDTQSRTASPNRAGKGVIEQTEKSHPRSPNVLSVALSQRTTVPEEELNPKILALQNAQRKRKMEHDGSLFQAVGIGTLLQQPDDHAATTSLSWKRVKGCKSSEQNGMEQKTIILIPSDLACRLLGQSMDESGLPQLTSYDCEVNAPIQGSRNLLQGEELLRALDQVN

No constants are given. Whether binding was seen depends on the method and setting. In cells and extracts the contact can be indirect. Here binding means that the protein was enriched with, or labelled near, the bait; the list need not be complete. Tags and fused reporters may be left off the sequences shown.

As to “Hypoxia-inducible factor-1 subunit alpha (HIF1A), endogenous (from UniProt Q16665 1-826)”, the binding result is reported as “binds”.

(Values after paper PMC11443453.)
